In PubChem BioAssay AID1439 (NMMLSC, 2008):
The campaign covered roughly 220,000 compounds. About 770 (0.35%) were called active. The inconclusive results got no clear call from the source; some entries with a clear call stand among them for comparison. Rule as the data show it: active = binding response below about 49% or above about 150%; inconclusive = no clear call, values can overlap the other calls; inactive = in between.

Amino acid sequences for entries named in this document (tags omitted).
UniProt P09471, whole entry, looked up: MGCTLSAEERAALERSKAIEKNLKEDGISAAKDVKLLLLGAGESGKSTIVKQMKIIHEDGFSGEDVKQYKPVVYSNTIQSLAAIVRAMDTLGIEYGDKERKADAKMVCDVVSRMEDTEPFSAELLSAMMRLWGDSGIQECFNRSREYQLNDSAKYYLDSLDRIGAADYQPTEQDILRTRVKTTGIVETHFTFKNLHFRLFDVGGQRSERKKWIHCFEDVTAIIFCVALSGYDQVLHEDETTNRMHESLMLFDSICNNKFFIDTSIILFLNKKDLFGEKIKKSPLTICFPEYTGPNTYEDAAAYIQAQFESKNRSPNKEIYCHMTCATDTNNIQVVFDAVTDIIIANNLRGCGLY

molecular target: Guanine nucleotide-binding protein G(o) subunit alpha (Homo sapiens) (UniProt P09471); assay: RGS7-Galphao binding modulators, primary screen, biochemical, multiplexed bead flow cytometry (AID 1439); settings: at 10 µM, actives lie on both sides;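 also: fluorescent Galphao held in activated GDP-AlF4 state binding bead-coupled RGS7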

| SMILES | binding response (% of control) |
| --- | --- |
| Cn1c(N)nc2ccccc2c1=O | inconclusive: 108% |
| CCOC(=O)C1=C(c2ccccc2)NC(N)=NC1c1ccc(OCc2ccc(Cl)cc2)c(OC)c1 (stereo unspecified) | inconclusive: 88.2% |
| Cc1nc2nc[nH]n2c(=O)c1NS(=O)(=O)c1ccc(F)cc1 | inconclusive: 84.2% |
| Cc1cccc(COCCN2CCN(S(=O)(=O)c3ccccc3)CCC2=O)c1 | inconclusive: 111% |
| COC(=O)c1c(NC(=O)CCNCc2ccco2)sc2c1CCC2 | inconclusive: 47.9% |
| O=C(CSc1ccccn1)N/N=C/c1cc([N+](=O)[O-])ccc1O | inconclusive: 88.8% |
| CCC(C(=O)Nc1sc(C(N)=O)c(C)c1C(=O)OC)c1ccccc1 (stereo unspecified) | inactive: 98.8% |
| CCn1c(C)c(P(c2ccccc2)c2ccccc2)[n+]2ccccc12 | inactive: 108% |
| CCOC(=O)c1ccc(-n2nc(C)cc2C)cc1 | inconclusive: 152% |
| COC(=O)CNC(=O)c1ccc(F)cc1 | inconclusive: 88.1% |
| CC(=O)c1ccc(N2CCN(C(=O)Cc3cccs3)CC2)cc1 | inconclusive: 85.6% |
| Cn1cc(C(=O)N/N=C/c2ccc(Br)c([N+](=O)[O-])c2)c2ccccc21 | inconclusive: 93.4% |
| O=c1[nH]cnc2ccc([N+](=O)[O-])cc12 | inconclusive: 91.8% |
| O=C(/C=C/c1ccc(F)cc1)c1ccccc1Br | inactive: 98.3% |
| CN(C)CCCNc1cc(C(C)(C)C)nc2c(-c3ccc(Cl)cc3)cnn12 | inconclusive: 105% |
| CCOc1ccc(N2C(=O)C3ON(C)C(c4ccc([N+](=O)[O-])cc4)C3C2=O)cc1 (stereo unspecified) | inconclusive: 120% |
| O=C(Nc1nnc(C2CC2)s1)C1CCCO1 (stereo unspecified) | inconclusive: 95.6% |
| Cc1cc(C)n2nc(C(=O)NC3CCCc4ccccc43)nc2n1 (stereo unspecified) | inactive: 103% |
| O=c1[nH]c2ccsc2c(=O)n1CCO | inconclusive: 79.1% |
| Cc1cc(C(=O)COc2ccc(F)cc2Br)c(C)n1C | inconclusive: 113% |
| CCCNC(=O)NC1CCCc2ccccc21 (stereo unspecified) | inconclusive: 112% |
| CCN1CCN(c2ncnc3c2cnn3-c2ccc(Cl)cc2)CC1 | inconclusive: 73.8% |
| O=C(/C=N/NC(=O)c1ccc(Cl)cc1Cl)c1ccccc1 | inconclusive: 120% |

| SMILES | binding response (% of control) |
| --- | --- |
| CN(C(=O)COC(=O)c1ccc2ccccc2n1)C1CCS(=O)(=O)C1 (stereo unspecified) | inactive: 100% |
| O=C(NNC1=NCCCCC1)Nc1ccc(Cl)cc1 | inconclusive: 46.6% |
| Cc1noc(C)c1COC(=O)c1cccnc1Cl | inconclusive: 90% |
| COc1ccccc1/C=C/C=N/NC(=O)CCn1cnc2ccccc21 | inconclusive: -94.4% |
| CC1(c2nnc(-c3ccccc3)o2)CC(c2ccc(Cl)cc2)=NO1 (stereo unspecified) | inconclusive: 112% |
| O=C1NC2(CCSC2)C(=O)N1CC(=O)N(Cc1ccccc1)C1CCS(=O)(=O)C1 (stereo unspecified) | inconclusive: 121% |
| CCn1c(COc2cccc3cccnc23)nnc1SC(F)F | inactive: 114% |
| CN(C)CCn1c(N)nc2ccccc21 | inconclusive: 27.9% |
| Cc1nc(-c2nnc(SCC(=O)Nc3ccc(Cl)cc3)n2C)cs1 | inconclusive: 110% |
| CC(NS(=O)(=O)c1ccccc1)c1n[nH]c(=S)n1-c1ccccc1 (stereo unspecified) | inconclusive: 77.4% |
| c1cncc(CSc2nnc3ccc(-c4ccncc4)nn23)c1 | inconclusive: 108% |
| Cc1nn(-c2ccccc2)c(-c2ccccc2[N+](=O)[O-])c1C(=O)O | inconclusive: 106% |
| S=c1[nH]nc(-c2cccs2)n1C1CCCCC1 | inconclusive: -27.8% |
| O=CN/C=C/c1cc(O)ccc1O | inconclusive: 81.8% |
| Cn1nc(-c2ccccc2)cc1NC(=O)Nc1ccc(F)cc1 | inconclusive: 101% |
| Cc1noc(C)c1COC(=O)CCCNC(=O)c1ccc(Cl)cc1 | inconclusive: 150% |
| Cc1ccc2nc(Cl)c(C3CC(c4ccco4)=NN3C(=O)CCCC(=O)O)cc2c1 (stereo unspecified) | inconclusive: 29.2% |
| Oc1ccc(-c2n[nH]c(=S)n2-c2ccc3c(c2)OCCO3)c(O)c1 | inactive: 92.8% |
| Cc1cc(N/N=C/c2ccc(F)cc2)nc(-n2nc(C)cc2C)n1 | inconclusive: 110% |
| Cc1cc(C)c(C(=O)CN2C(=O)NC3(CCCCCC3)C2=O)cc1C | inactive: 101% |
| Cc1cc(C)nc(/N=C(\NC(=O)C(C)(C)C)Nc2ccc(F)cc2)n1 | inconclusive: 102% |
| O=C(NCc1ccco1)c1ccc(CNc2c(N3CCCCC3)c(=O)c2=O)cc1 | inactive: 100% |
| CNC(=O)/C(C#N)=C/c1ccc(-c2nc3ccccc3s2)o1 | inconclusive: 34.6% |

Filtered by structure, those above containing bromine.

| SMILES | binding response (% of control) |
| --- | --- |
| Cn1cc(C(=O)N/N=C/c2ccc(Br)c([N+](=O)[O-])c2)c2ccccc21 | inconclusive: 93.4% |
| O=C(/C=C/c1ccc(F)cc1)c1ccccc1Br | inactive: 98.3% |
| Cc1cc(C(=O)COc2ccc(F)cc2Br)c(C)n1C | inconclusive: 113% |
